Results as given in publication PMC9548164.
These are yes or no findings as the source states them, for the method shown. For some of these results: Binding seen in cells or lysates may run through a third protein. Some results given as binding are weak or reduced against the parent protein; the word gives no strength.

Sequences of proteins named here, by UniProt entry; tags and fusion partners are left off.
UniProt Q04206: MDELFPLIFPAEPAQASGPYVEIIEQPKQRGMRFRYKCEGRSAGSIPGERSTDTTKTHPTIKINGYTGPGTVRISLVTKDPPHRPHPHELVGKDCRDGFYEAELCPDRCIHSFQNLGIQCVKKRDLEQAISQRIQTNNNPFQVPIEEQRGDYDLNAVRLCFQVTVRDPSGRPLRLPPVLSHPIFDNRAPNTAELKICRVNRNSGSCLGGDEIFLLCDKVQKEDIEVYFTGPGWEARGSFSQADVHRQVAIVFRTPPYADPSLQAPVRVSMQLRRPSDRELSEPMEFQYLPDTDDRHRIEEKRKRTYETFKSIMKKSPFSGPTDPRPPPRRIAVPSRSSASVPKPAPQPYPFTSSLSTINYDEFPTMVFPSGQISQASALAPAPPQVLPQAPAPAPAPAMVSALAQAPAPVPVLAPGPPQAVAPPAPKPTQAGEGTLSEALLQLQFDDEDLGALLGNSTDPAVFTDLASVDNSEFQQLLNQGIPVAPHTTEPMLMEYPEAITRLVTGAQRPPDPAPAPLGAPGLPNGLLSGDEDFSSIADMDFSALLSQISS
UniProt P07355: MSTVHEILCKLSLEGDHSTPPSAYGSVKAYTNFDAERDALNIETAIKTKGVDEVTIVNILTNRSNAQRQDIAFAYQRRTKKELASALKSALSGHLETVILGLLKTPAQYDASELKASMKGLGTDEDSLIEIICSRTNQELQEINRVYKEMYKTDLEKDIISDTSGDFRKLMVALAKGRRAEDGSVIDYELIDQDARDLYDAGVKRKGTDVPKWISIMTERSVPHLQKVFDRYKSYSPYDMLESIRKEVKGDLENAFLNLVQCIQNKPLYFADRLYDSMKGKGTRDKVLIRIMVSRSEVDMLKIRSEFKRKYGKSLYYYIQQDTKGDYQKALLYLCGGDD

What was measured:
[1] = biological target: p65 (Rela), NF-κB p65 subunit (human (endogenous in A549)) (UniProt Q04206); experiment: co-IP; anti-p65 antibody (CST 8242) added to whole-cell lysates of A549 cells treated with exosomes from CAFs, overnight at 4 °C, Dynabeads Protein A/G, rabbit IgG as control; immunoblot
[2] = biological target: GST-conjugated p65 (ab114150, Abcam) (UniProt Q04206); experiment: co-IP; IP analysis with a LINC01614 mutant lacking the stem-loop structure (973–1775) in place of wild-type LINC01614; the system (recombinant proteins or cells) is not stated
[3] = biological target: GST-conjugated p65 (ab114150, Abcam) (UniProt Q04206); experiment: condition: only with the LINC01614 mutant lacking the stem-loop structure (973–1775); co-IP; IP analysis with a LINC01614 mutant lacking the stem-loop structure (973–1775) in place of wild-type LINC01614; the system (recombinant proteins or cells) is not stated
[4] = biological target: GST-conjugated p65 (ab114150, Abcam) (UniProt Q04206); experiment: co-IP; in vitro binding assay in IP lysis buffer: GST-conjugated p65, His-conjugated ANXA2 and folded in vitro-transcribed LINC01614 (full length, antisense control, or nucleotides 973–1775) incubated at room temperature for 1 h; immunoprecipitation and western blotting; both purified

binding [1]	binding [2]	binding [3]	binding [4]	Substance
binds	–	–	–	Annexin A2 (ANXA2) (from UniProt P07355 1-339)
–	binds	no binding	binds	His-conjugated ANXA2 (ab93005, Abcam) (from UniProt P07355 1-339)
